Results are given in words; binding and its absence hold for the method and conditions named. In cells and extracts the contact can be indirect. Some entries that bind do so weakly or less than the wild type.

Protein sequences, listed by entry. Tags and fused reporters are not part of them.
UniProt P25490: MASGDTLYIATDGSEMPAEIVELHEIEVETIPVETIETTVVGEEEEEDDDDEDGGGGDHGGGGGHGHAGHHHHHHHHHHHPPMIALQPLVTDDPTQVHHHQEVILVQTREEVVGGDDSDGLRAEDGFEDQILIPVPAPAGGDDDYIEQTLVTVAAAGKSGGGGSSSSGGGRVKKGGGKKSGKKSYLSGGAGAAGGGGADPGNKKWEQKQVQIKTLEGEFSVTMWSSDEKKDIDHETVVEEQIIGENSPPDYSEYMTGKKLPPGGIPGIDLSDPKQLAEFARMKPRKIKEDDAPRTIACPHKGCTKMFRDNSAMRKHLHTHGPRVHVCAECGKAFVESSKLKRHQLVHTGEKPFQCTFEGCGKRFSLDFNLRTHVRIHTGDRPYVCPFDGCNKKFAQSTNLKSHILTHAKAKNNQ
UniProt Q09472: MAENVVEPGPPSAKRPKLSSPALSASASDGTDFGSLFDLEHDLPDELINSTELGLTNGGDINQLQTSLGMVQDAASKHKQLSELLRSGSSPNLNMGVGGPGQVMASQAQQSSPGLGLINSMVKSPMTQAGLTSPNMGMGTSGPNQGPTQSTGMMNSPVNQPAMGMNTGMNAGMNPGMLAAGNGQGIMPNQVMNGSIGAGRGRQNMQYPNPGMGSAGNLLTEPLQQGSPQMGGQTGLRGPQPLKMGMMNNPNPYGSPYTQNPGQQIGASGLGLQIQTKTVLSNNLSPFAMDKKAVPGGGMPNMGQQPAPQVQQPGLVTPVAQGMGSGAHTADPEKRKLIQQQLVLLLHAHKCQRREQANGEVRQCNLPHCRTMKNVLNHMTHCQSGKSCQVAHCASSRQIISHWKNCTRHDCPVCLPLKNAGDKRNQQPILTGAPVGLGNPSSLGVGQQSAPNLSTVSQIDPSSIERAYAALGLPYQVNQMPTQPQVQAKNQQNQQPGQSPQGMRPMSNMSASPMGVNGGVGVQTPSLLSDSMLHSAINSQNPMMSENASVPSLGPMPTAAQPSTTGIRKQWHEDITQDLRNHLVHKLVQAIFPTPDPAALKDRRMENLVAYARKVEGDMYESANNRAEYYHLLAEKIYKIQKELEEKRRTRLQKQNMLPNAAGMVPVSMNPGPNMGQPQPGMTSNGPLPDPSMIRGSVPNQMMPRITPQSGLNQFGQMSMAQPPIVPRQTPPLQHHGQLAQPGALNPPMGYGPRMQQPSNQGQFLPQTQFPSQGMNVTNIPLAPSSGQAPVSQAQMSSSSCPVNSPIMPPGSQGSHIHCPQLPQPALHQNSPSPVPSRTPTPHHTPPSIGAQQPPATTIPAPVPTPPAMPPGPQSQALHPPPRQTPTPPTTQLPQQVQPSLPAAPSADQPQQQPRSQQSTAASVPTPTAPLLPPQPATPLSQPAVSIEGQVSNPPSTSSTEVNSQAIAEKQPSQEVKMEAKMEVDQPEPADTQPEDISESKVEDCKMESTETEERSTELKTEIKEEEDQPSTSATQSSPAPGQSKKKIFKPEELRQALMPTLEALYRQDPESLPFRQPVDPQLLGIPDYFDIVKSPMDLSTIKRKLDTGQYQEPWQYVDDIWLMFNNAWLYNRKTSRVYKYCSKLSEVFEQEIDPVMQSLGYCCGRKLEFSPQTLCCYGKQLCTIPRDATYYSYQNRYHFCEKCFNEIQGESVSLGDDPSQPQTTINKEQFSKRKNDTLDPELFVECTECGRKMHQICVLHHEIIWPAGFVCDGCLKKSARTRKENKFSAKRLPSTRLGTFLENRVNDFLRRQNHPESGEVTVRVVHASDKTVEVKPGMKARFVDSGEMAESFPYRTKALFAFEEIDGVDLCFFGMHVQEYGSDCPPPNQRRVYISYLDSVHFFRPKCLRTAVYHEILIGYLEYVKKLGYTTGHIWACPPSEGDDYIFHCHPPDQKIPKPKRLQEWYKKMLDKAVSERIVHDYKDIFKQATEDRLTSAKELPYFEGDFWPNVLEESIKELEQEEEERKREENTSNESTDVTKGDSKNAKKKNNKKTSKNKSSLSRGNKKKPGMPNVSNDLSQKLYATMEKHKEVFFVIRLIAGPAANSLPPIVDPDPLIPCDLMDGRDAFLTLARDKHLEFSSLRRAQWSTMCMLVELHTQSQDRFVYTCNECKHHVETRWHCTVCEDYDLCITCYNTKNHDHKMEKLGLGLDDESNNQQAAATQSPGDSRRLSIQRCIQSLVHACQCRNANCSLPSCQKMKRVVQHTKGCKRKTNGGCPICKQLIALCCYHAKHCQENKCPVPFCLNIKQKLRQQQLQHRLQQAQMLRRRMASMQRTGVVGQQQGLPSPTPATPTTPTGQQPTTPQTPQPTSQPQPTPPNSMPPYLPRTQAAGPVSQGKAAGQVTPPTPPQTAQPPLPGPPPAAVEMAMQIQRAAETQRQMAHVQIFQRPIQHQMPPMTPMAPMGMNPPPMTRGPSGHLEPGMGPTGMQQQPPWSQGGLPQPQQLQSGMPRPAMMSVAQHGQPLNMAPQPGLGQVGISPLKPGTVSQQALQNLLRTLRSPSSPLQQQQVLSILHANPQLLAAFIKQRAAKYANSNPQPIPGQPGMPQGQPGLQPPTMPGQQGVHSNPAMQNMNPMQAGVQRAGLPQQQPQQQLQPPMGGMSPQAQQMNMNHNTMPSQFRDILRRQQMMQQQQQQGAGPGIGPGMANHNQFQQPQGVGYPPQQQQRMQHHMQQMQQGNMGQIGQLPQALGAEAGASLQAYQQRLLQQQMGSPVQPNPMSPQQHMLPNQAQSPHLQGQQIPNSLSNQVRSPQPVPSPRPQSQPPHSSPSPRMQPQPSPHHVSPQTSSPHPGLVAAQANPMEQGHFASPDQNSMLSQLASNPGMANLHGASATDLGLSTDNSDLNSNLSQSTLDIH

This assay concerns the target transcription factor YY1 (human (endogenous in CCLP1 and HuCCT1)) (UniProt P25490). The assay can be described thus: co-IP; immunoprecipitation assay in CCLP1 and HuCCT1 cells; which protein was precipitated and the buffer are not told.

On to “histone acetyltransferase p300 (from UniProt Q09472 1-2414)”, for which the binding result is “binds”.

These data come from publication PMC10566113.
